Measurements reported in patent publication US20250376501A1.
Results are given in words; binding and its absence hold for the method and conditions named. Some binding calls cover weakened binding; strength is not graded here. For part of these data: Where a sequence is shown, tags or fusion partners need not be part of it.

By UniProt entry, the sequences of proteins in these tests, tags left out. Where a name states a change or a piece, a line headed by the entry shows the natural chain unless it says otherwise.
UniProt Q969D9: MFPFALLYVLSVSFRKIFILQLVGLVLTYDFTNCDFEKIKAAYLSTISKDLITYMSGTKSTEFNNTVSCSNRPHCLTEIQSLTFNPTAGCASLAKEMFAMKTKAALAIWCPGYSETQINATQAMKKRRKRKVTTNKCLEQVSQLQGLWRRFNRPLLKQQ

Columns and labels:
[1] = molecular target: hTSLP-mFc recombinant protein (ACROBiosystems, Cat. No. TSP-H5255) (human) (UniProt Q969D9); test: ELISA, hTSLP-mFc coated at 50 ng/well, anti-His HRP, OD450
[2] = molecular target: hTSLP recombinant protein (ACROBiosystems, Cat. No. TSP-H52Ha) (human) (UniProt Q969D9); test: competitive ELISA, TSLPR-Fc coated, hTSLP and hIL-7Rα-mFc added with the titrated blocker; blocked: hIL-7Rα-mFc binding to hTSLP/TSLPR-Fc complex, anti-mouse Fc HRP
[3] = molecular target: hTSLP recombinant protein (ACROBiosystems, Cat. No. TSP-H52Ha) (human) (UniProt Q969D9); test: competitive ELISA, mouse IL-7Rα-his coated, hTSLP and hTSLPR-Fc added with titrated 3H10-his; blocked: hTSLP/hTSLPR-Fc complex binding to mouse IL-7Rα-his, anti-human Fc HRP
[4] = molecular target: hTSLP recombinant protein (ACROBiosystems, Cat. No. TSP-H52Ha) (human) (UniProt Q969D9); test: phage display panning on coated hTSLP
wild-type hTSLP (human) = wild-type hTSLP (human) (UniProt Q969D9); test: Gator BLI, reference of the alanine scan

B1: 3H10-his recombinant protein (designed binder, not shown: small tags and cut ends)
chain: GSHMDLGKKLLEAAWAGRDDEVRILMANGADVNAGDASGDTPLHLAAFSGHLEIVEVLLKHGADVNAEDLLGMTPLHLAAPFGHLEIVEVLLKHGADVNAAARNNGKTPLHLAAFVGHLEIVEVLLKNGADVNAQDKFGKTAFDISIDNGNEDLAEILQKLNG
[1]
  binding: binds
[2]
  binding: binds
[3]
  binding: binds

B2: 1A1 mutant G7W1 (designed binder)
chain: GSDLGKKLLEAAWAGRDDEVRILMANGADVNAGDASGDTPLHLAAVVGHLEIVEVLLKHGADVNAEDLLGMTPLHLAAPFGHLEIVEVLLKHGADVNAAARNNGKTPLHLAAFVGHLEIVEVLLKNGADVNAQDKFGKTAFDISIDNGNEDLAEILQKLNG
[4]
  binding: binds

B3: 3H10 clone (designed binder)
chain: GSHMDLGKKLLEAAWAGRDDEVRILMANGADVNAGDASGDTPLHLAAFSGHLEIVEVLLKHGADVNAEDLLGMTPLHLAAPFGHLEIVEVLLKHGADVNAAARNNGKTPLHLAAFVGHLEIVEVLLKNGADVNAQDKFGKTAFDISIDNGNEDLAEILQKLNG
[4]
  binding: binds

B4: 3H10-biotin protein (designed binder)
chain: GSHMDLGKKLLEAAWAGRDDEVRILMANGADVNAGDASGDTPLHLAAFSGHLEIVEVLLKHGADVNAEDLLGMTPLHLAAPFGHLEIVEVLLKHGADVNAAARNNGKTPLHLAAFVGHLEIVEVLLKNGADVNAQDKFGKTAFDISIDNGNEDLAEILQKLNG
modifications: biotin (site not stated)
wild-type hTSLP (human)
  binding: binds
